Experimental data as given in article PMC10272880.
Where a protein sequence is shown, tags need not be part of it. Construct, isoform or probe ends are uncertain for at least one entry. The comparison behind a weaker result is the experiment's own reference, which may not be listed here. At least one verdict rests on a figure or table, not on a statement of the authors.

Target: T1, LldR (Escherichia coli K-12 W3110 type-A) (UniProt P0ACL7)
T1 sequence (looked up): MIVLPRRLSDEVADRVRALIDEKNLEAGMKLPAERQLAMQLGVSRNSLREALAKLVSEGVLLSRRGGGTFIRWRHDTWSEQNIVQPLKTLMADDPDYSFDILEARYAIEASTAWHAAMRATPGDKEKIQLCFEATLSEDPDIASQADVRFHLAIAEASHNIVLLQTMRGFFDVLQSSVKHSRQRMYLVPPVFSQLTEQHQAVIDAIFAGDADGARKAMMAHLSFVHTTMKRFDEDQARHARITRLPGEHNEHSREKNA
Assay: EMSA
Details: EMSA: binding buffer (composition given for gSELEX: 10 mM Tris-HCl pH 7.8 at 4 °C, 3 mM Mg acetate, 150 mM NaCl, 1.25 mg/ml BSA), 37 °C 30 min, then effector 30 min, recombinant protein, residues 1-258, protein details: C-terminal His, label: none (GelRed stain), probe letters rebuilt from the primers and the genome

[1] = 20-320 pmol LldR, 0.5 pmol probe

## AAGTTAAATATAACTTTTACTGGAAATAAGATCAGCCATTTTTTTATAAACATAAGCTATACGCTGTGCGAAAATATATTCGTGCTGCATTTACTTATTATCAATTAACTGTTATGCAAAACTACTTTGTGGATAAATTTTGGTCCTACCAAATCTGGCAGTTTTTGCGCTAAGAAACAGTCTGGCATCATTTCATTAGTATACTGAAATTGAAATAATCGCAGTATGAAATATAAGGGATAATCATGACTCATGTCTGCTCGGTGATCCTCATTCGTCGTTCATTCGATATTTATCATGAACAGCAAAAAATATCGCTGCATAACGAGAGTATTCT (double strand) [gadW/gadY probe]
[1]
  binding result: binds

## CAGGAGATGACTGGGTTTTCAAAGACCGCGTTTTAAGAACACAGTATCTACAGGGTGATTCTGCACATTCCTATAGGCCGAGTAAGGTGTTCACGCCGCATCCGGCAAGATAAGGCGCTCTGGATCAACAACCTAAGGGCAATTCTCTGATGAGGATTGCCCTTTTCTTTACCAGACATCTCCCCCCACAAGAATTGGCCCTACCAATTCTTCGCTTATCTGACCTCTGGTTCACAATTTCCCAATTAAAACTCACATCAATGTTGCCAATACATAACATTTAGTTAACCATTCATTGTCATTATCCCTACACAACACAATTGGCAGTGCCACTTTTACACAACGTGTGACAAGGAGATGAGCAACAGACTCATTACACGATGTGCGTGGACTCCAGGAGACCTGCA (double strand) [lldP promoter probe]
20-320 pmol LldR, 0.5 pmol probe, highest binding of all probes
  binding result: binds
D-lactate 5 mM (enhanced, no significant change below 1 mM)
  binding result: binds
D-lactate >5 mM (10-50 mM tested, dissociation)
  binding result: binds more weakly
L-lactate 5 mM (enhanced, no significant change below 1 mM)
  binding result: binds
L-lactate >5 mM (10-50 mM tested, dissociation)
  binding result: binds more weakly
Acetate 5 mM (effect similar to lactate)
  binding result: binds
Acetate >5 mM (10-50 mM tested, effect similar to lactate)
  binding result: binds more weakly
Glycolate 0.1-50 mM (slight effect)
  binding result: binds
Pyruvate 0.1-50 mM (no effect)
  binding result: binds

## TTGATTTCCTCTGTATGTGCACCCAAGGTGCCAGATAAACGTTGTGGATATTTTACGCTTCCGGAAAGTGCTGCTCCAGTTGTTAATTCTGCAAAATCGGATAAGTGACCGAAATCACACTTAAAAATGATCTAAAACAAAATTCACCCGAATCCATGAGTGCGCCACCTCCAAATTTTGCCAGCTGGATCGCGTTTCTTAGATCATATTTGAAAAAAGATAGAAACATACTTGCAACATTCCAGCTGGTCCGACCTATACTCTCGCCACTGGTCTGATTTCTAAGATGTACCTCAGACCCTACACTTCGCGCTCCTGTTACAGCACGTAACATAGTTTGTATAAAAATAAATCATTGAGGTTATGGTC (double strand) [yfcZ/fadL probe]
[1]
  binding result: binds

## AGAAACATCCATAAATTAATCATAGCTCAACCTCCTGCCGCGCTAAAAAACCTGTAACTTCAGTCACTTTAATAGTAAGACAATCCTTAACCTCTGGCAATTTTTGCTAAGCATCAATGAAAACAGCATGTTAAATGCAAGACTGTTGTGTACGGAAAAATATTTACTTTGCACGATTAATAATCAGTAGCTGAAAGCAGTCAGCGAGTGATAAAGTACAGATACCGCATTCATGCTCCTCGTGGTTATGTCCTGACTAGTCTTTACACTCTTTACAGGAACCATTGTCGTACATGATGGCCCAACCAATTGAGTGTACCGCTGTCGACATGGAATCTTCTGCGATACAACAATTCGTATCTACAGAAGGTAACT (double strand) [yfdY/lpxP probe]
[1]
  binding result: binds

## AACGAAAAGCCCCTTACTTGTAGGAGGTCTGACCACTTGTGATGATATGGTTGTAGTGGATGTAAAAACATTTAGCAATATGTTTACAATATAATTACAACAAAGCTCACATTGTTGCTGTTTTTATCCGCACTTCAGGTCAAAAAGTCCTGGTCATAGCACCTGCCCGTACTTCTCGCTTTTGGCGGTATCCGGTACACTGCATTTTGTCTATTACATTTATGCTGAAGGATATCCTCATGTACCAGGATCTTATTCGTAACGAACTGAACGAAGCGGCGGAAACGCTGGCTAACTTTTTAAAAGATGACGCCAATATTCACGCCATTCAGCGCGCGGCGGTCCTGTTAGCAGACAGCTTTA (double strand) [fadE/gmhA probe]
[1]
  binding result: binds

## TTTTGCTGATGAATAAGTTCCCAGGGGATTTGCCGAAATTTCGCCTGGCGCTGACGATGATTATCGCGCACCAGCGCCTGCGTGATGCACCGATCCCGGTTAACGAGGATTTATCGGCGTTTCACCGACAAATGCGCCGCACAGCAGACCATGTGATATCTGCCCGTAGCGATGATAAACGTCGTCGGTACTTTGGCCAGTTGCTGGAAGAACTGGAAATCTACCAGGAAAAGCTACGCATCTGGCAAGCGCCACCGCAGGTGACGGAACCGGTAAATCGGCTGGCGGGGATGCTCCATAAGTATCAACATGCGTTGACCGATAGTTAAGTCAAAACCGACGCCAAAAGCGTCGGTTTTTTCATGGCTATACTTAGCGATGCACGGCAGAACTCGCCGCGAAACGTGACGGTGGCAACAG (double strand) [yhcO probe]
[1]
  binding result: binds
